Publication PMC3156230

Target: RGS3
Experiment: co-IP; V5-tagged and Flag-tagged proteins co-expressed in transiently transfected HEK 293T cells; lysis buffer with 1% Triton X-100; cleared lysate incubated 1-2 h with anti-Flag M2 beads, washed four times; Western blot with anti-V5

binding: no binding
B1: C. elegans SYG-2 (receptor, UniProt Q9U3P2 20-1270)
chain: FFLESPSNLSTIAGESITFRCSAEKSPEPIVYSQWKSNTGSLLGYHQEGILPGHQGRFSYIKQNAEELHLKITHVNLDDDGEYECQMLHPEEGPIRAKSFLNIIVPPQLVYFSNYQPNSIIAVKENTPLNITCVVPNVKPEPEVLWYMDGKVMSRDVKQASTPHLNKTFTVYTSLVVQSDRNDHGKVITCEAFQKETDIRITTNTTLDVLFPPSDPTVEILRNPSALRSGDNVTIACSVTGGNPPPDVFWYHENKRLQSHSTLDTRSKEIKNIYSFIASQNDNMAEYECRANNSRTGNPKRKAMKLEVNYPPASVELFGESNIRYGSSANIQCKSLPSNPASQITWIINGRSVPTPTQREFVVENGIVSSSNVSVHSNELSVEAHQINVECMATNPEGSSAKQHVIKIIAPPKAPIITGLEDRKFFEGDIVNVTCEAQGGNPLAELSWYRGSEKHLVKGRKKMKWSQVKKKLVMSLLCLCEVVIMNFFRFSKNVFYFFRFTLFIECGVNGAHNEVAGFSSYSTLALRVDRTMNTQRLKCEATNAALDEPLIESQYLSVYYPPRRVLIRPADSGDQRLLVGKSARLVCGTLSSNPAAHISWQFSRATDDNKVHLGDVSLNETTRDNGFNVENVLSFTPTEEYDGTVVHCIANHPEWKHSVNTSFPLNVMYPPKMLVNDPVTVVMSEGDSFKENLTVRGNPAISLWQWRKNGVPFDHTIGRVFARGAVLSGKQLLSTDAGVYTLTATNSVGSTNITIKLAVEYSARITSISTPVIAATGDTVLLECEADGEPSKANMIHWYKNGEILAAQHRGHKKAILRLNATEQQSGEYTCKADNGIGVPAEGQTFLLVNSAPRVLPVARYAKTAGILGGVAKARCKVYAVPTVEFVWEKDEQLIKKNSSKYSIVNTQIDYSTYESTLWIKNIVPDDYTKKVKCIARNSFGTDHLSIPIIPPTHPDEPFNLTMTNSTLNTISVAWEPRFDGGSDQIFEVKYRRQNDDLIHLVNTTHTNLRLSGLATANTYFFQIRSINARGFASSWTSPVIFATLNEDGVNVAMIRNEKLKLTTWIPYILIFIVLFMLLNVVICCFVCNRTKKRKLREKTEMARTAINGGDVRQVQMYGTMMGNDGMSRRDIDDRPEMSEDEHSVRTMIEVSPNGYMQPIEPMLYESTGLLEYDYQTRSYMGSSQGTRSMTYANVPYPEPPQPSYHSNWNSLQRQSNNNTSPQHHLSTFINPNMGVRAGPINYAQLDGDLV

Results are given in words; binding and its absence hold for the method and conditions named. Binding seen in cells or lysates may run through a third protein.
